Experimental data: US9527830B2 (Merck Sharp & Dohme Corp., priority 2011, dated 2016)
Some of these results come from one statement about several compounds together.

Tests used:
[1] = molecular target: T1, hROMK1 (Kir1.1) (Homo sapiens, UniProt P48048); assay: ^86Rb^+ Efflux Assay; type: cell-based; conditions: CHO-DHFR- cells stably expressing hROMK1; potency ranges
T1 construct: expressed in transfected cells
T1 sequence (P48048 1-391): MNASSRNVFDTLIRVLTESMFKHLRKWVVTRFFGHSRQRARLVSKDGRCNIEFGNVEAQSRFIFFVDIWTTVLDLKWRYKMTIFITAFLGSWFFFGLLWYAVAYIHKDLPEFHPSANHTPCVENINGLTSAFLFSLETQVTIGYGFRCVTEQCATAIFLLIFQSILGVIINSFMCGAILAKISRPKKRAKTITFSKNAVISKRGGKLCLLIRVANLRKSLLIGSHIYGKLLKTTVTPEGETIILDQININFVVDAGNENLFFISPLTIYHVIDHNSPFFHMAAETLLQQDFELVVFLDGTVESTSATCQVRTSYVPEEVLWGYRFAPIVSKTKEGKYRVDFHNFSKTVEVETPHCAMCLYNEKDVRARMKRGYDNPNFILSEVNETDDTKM

[2] = molecular target: T2, hROMK (hKir1.1) (Homo sapiens, UniProt P48048); assay: Thallium Flux Assay (FluxOR, FLIPR-Tetra); type: cell-based; conditions: HEK293 cells stably expressing hROMK; potency ranges
T2 construct: expressed in transfected cells
T2 sequence (P48048 1-391): T1 sequence (P48048 1-391)
Protocol: Several assays may be used to measure functional inhibition of the ROMK channel by compounds of the instant invention. One primary assay that can be used is a functional ^86Rb^+ efflux assay that measures the ability of ROMK to permeate ^86Rb^+, in the absence or presence of test compound. Under control conditions, cells loaded with ^86Rb^+ and incubated in Rb^+-free medium display a time-dependent efflux of the isotope, the rate of which depends on number of functional channels. When cells are incubated in the presence of a channel inhibitor, efflux of ^86Rb^+ is prevented in a concentration-dependent manner, and IC50 values of inhibition by compounds can be accurately determined. This assay has been established with cell lines expressing either human, rat or dog ROMK channels, and can operate in 96- or 384-well format. Importantly, the human, rat, and dog ^86Rb^+ efflux assays can be carried out in the presence of up to 100% serum allowing, therefore, an accurate estimation of the effect of protein binding on the inhibitory activity of compounds of interest. Another ROMK functional assay makes use of the ability of thallium to permeate through open ROMK channels and increase the fluorescence of a dye previously loaded into the cells. Under control conditions, cells loaded with dye and exposed to thallium-containing medium display a time-dependent increase in fluorescence, the rate of which depends on number of functional channels. When cells are incubated in the presence of a channel inhibitor, the increase in fluorescence is attenuated in a concentration-dependent manner, and IC50 values of inhibition by compounds can be accurately determined. This assay has been established with cell lines expressing either human, or rat ROMK channels, and operates in 384-well format. Another assay for evaluation of the compounds of the instant invention and for evaluation of mechanism of action of compounds of Formula I relies on the measurement of the electrical current that is generated as potassium permeates through the channel. For these electrophysiological experiments, three different platforms, IonWorks, QPatch, or manual patch clamp, are used, depending on the experimental protocol under consideration. IonWorks operates in a 384-well format and allows accurate determination of IC50 values for inhibitors.
HEK293 cells stably expressing hROMK (hKir1.1) were grown at 37° C. in a 10% CO2 humidified incubator in complete growth media: Dulbecco's Modified Eagle Medium supplemented with non-essential amino acids, Penicillin/Streptomycin/Glutamine, G418 and FBS. At >80% confluency, media was aspirated from the flask and rinsed with 10 ml Calcium/Magnesium-free PBS. 5 ml of 1× trypsin (prepared in Ca/Mg Free PBS) was added to T-225 flask and flask returned to 37° C./CO2 incubator for 2-3 minutes. To dislodge the cell, the side of the flask was gently banged by hand. Cells were completely triturated and then transferred to 25 ml complete media, and centrifuged at 1,500 rpm for 6 min followed by resuspension in complete growth media and cell concentration determined. For typical re-seeding, 4E6 cells/T-225 flask attained >80% confluency in 4 days. Under ideal growth conditions and appropriate tissue culture practices, this cell line was stable for 40-45 passages.
FluxOR™ Kit Components (Invitrogen F10017)
• FluxOR™ Reagent (Component A) • FluxOR™ Assay Buffer (Component B)—10× Concentrate • PowerLoad™ Concentrate (Component C)—100× Concentrate • Probenecid (Component D)—Lyophilized sample was kept at −20° C. Water soluble, 100× after solubilization in 1 ml water. Store at 4° C. • FluxOR™ Chloride-free Buffer (Component E)—5× Concentrate • Potassium sulfate (K2SO4) Concentrate (Component F)—125 mM in water. Stored at 4° C. • Thallium sulfate (Tl2SO4) Concentrate (Component G)—50 mM in water. […]

Row | Structure (SMILES) | IC50 [1] [µM] | IC50 [2] [µM]
1 | O=C1OCc2cc(SC3CCN(CC(O)c4ccc5c(c4)COC5=O)CC3)ccc21 (stereo not shown) [Example 85, 5-({1-[2-hydroxy-2-(1-oxo-1,3-dihydro-2-benzofuran-5-yl)ethyl]piperidin-4-yl}sulfanyl)-2-benzofuran-1(3H)-one] | ≤ 1.1 | ≤ 0.7
2 | Cc1c(C(O)CC2CCN(C[C@H](O)c3ccc4c(c3C)COC4=O)CC2)ccc2c1COC2=O (stereo partly drawn) [Example 86, 5-[(1R)-1-Hydroxy-2-{4-[2-hydroxy-2-(4-methyl-1-oxo-1,3-dihydro-2-benzofuran-5-yl)ethyl]piperidin-1-yl}ethyl]-4-methyl-2-benzofuran-1(3H)-one] | ≤ 1.1 | ≤ 0.7
3 | Cc1c(CC(O)C2CCN(C[C@H](O)c3ccc4c(c3C)COC4=O)CC2)ccc2c1COC2=O (stereo partly drawn) [Example 87, 5-[(1R)-1-Hydroxy-2-{4-[1-hydroxy-2-(4-methyl-1-oxo-1,3-dihydro-2-benzofuran-5-yl)ethyl]piperidin-1-yl}ethyl]-4-methyl-2-benzofuran-1(3H)-one] | ≤ 1.1 | ≤ 0.7
4 | Cc1c(CCN2CCC(NCc3ccc4c(c3)COC4=O)CC2)ccc2c1COC2=O [Example 88, 4-Methyl-5-[2-(4-{[(1-oxo-1,3-dihydro-2-benzofuran-5-yl)methyl]amino}piperidin-1-yl)ethyl]-2-benzofuran-1(3H)-one] | ≤ 1.1 | ≤ 0.7
5 | Cc1c(CCN2CCC(NCc3ccc4nonc4c3)CC2)ccc2c1COC2=O [Example 89, 5-(2-{4-[(2,1,3-Benzoxadiazol-5-ylmethyl)amino]piperidin-1-yl}ethyl)-4-methyl-2-benzofuran-1(3H)-one] | ≤ 1.1 | ≤ 0.7
6 | Cc1c(CCN2CCC(NCc3ccc(C#N)c(F)c3)CC2)ccc2c1COC2=O [Example 90, 2-Fluoro-4-[({1-[2-(4-methyl-1-oxo-1,3-dihydro-2-benzofuran-5-yl)ethyl]piperidin-4-yl}amino)methyl]benzonitrile] | ≤ 1.1 | ≤ 0.7
7 | Cc1c([C@@H](O)CN2CCC(Nc3nccn4cnnc34)CC2)ccc2c1COC2=O [Example 114, (R)-5-(2-(4-([1,2,4]Triazolo[4,3-a]pyrazin-8-ylamino)piperidin-1-yl)-1-hydroxyethyl)-4-methylisobenzofuran-1(3H)-one] |  | ≤ 0.7
